Laboratory results from patent US20240376094A2, “SELECTIVE BCL-XL PROTAC COMPOUNDS AND METHODS OF USE” (Les Laboratoires Servier, priority 2021, published 2024).

Protein sequences, listed by entry. Tags and fused reporters are not part of them.
UniProt Q07817, whole entry: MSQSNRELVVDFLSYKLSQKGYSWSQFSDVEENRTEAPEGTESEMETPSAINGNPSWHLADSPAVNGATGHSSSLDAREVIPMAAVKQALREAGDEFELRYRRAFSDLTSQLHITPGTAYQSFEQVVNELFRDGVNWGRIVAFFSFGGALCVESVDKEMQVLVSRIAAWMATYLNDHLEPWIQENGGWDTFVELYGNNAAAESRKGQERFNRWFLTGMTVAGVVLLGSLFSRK

What was measured:
HiBiT-tagged BCL-xL = HiBiT-tagged BCL-xL (Homo sapiens, UniProt Q07817); assay: NCI-H1650 BCL-xL protein levels, Nano-Glo HiBiT Lytic Detection; conditions: read-out: Bcl-xl HIBIT NCIH1650 DC50, NCI-H1650 expressing HiBiT-tagged BCL-xL, overnight incubation
[1] = tested on: EBC-1 lung cancer cell line; assay: EBC-1 cell proliferation, CellTiter-Glo assay; conditions: read-out: CTG 5 day Ebc1 GI50, Ebc-1 cell viability, 5 days of treatment
Bcl-xL = Bcl-xL (Homo sapiens, UniProt Q07817); assay: HCT116 Bcl-xL degradation, capillary-based immunoassay (WES); conditions: for DC50: read-out: Bcl-xL DC50 (M) WES HCT116 24 h, HCT116, 24 h, 9-point serial dilution
MOLT-4 cells [2] = assay: MOLT-4 cell viability, CTG assay; conditions: read-out: MOLT-4 CTG/48 h (IC50), MOLT-4, 48 h
MOLT-4 cells [3] = assay: MOLT-4 cell viability, MTT assay; conditions: read-out: MOLT-4 MTT/48 h (IC50), MOLT-4, 48 h

Row | DC50 (HiBiT-tagged BCL-xL) | GI50 [1] | DC50 (Bcl-xL) | IC50 (MOLT-4 cells [2]) | IC50 (MOLT-4 cells [3]) | Bcl-xL % @10 nM WES HCT116 24 h (Bcl-xL; HCT116, 10 nM, 24 h, % of untreated cells) | Bcl-xL % @100 nM WES HCT116 24 h (Bcl-xL; HCT116, 100 nM, 24 h, % of untreated cells) | SMILES
1 | > 1670 nM | 37 nM | > 3.16e-07 M | 5.6 nM | – | – | – | Cc1ncsc1-c1ccc([C@H](C)NC(=O)[C@@H]2C[C@@H](O)CN2C(=O)[C@@H](NC(=O)CCNC(=O)c2nc(N3CCCc4c3nnc(Nc3nc5ccccc5s3)c4C)ccc2-c2cnn(CC34CC5(C)CC(C)(C3)CC(OCCN3CCCC3)(C5)C4)c2C)C(C)(C)C)cc1
2 | 200 nM | 520 nM | > 3.16e-07 M | 929 nM | 271 nM | 91% | 62% | Cc1ncsc1-c1ccc([C@H](C)NC(=O)[C@@H]2C[C@@H](O)CN2C(=O)[C@@H](NC(=O)CCCCN(C)CCCc2sc(N3CCCc4c3nnc(Nc3nc5ccccc5s3)c4C)nc2C(=O)O)C(C)(C)C)cc1

Structures were worked out from names or drawings and are uncertain.
